Values quoted from earlier work in patent publication US11555040B2, “Oxepinopyrazole derivatives as inhibitors of P13-kinase activity” (GLAXOSMITHKLINE INTELLECTUAL PROPERTY DEVELOPMENT LIMITED, priority 2017, dated 2023).

Protein sequences, listed by entry. Tags and fused reporters are not part of them.
UniProt P68400, whole entry: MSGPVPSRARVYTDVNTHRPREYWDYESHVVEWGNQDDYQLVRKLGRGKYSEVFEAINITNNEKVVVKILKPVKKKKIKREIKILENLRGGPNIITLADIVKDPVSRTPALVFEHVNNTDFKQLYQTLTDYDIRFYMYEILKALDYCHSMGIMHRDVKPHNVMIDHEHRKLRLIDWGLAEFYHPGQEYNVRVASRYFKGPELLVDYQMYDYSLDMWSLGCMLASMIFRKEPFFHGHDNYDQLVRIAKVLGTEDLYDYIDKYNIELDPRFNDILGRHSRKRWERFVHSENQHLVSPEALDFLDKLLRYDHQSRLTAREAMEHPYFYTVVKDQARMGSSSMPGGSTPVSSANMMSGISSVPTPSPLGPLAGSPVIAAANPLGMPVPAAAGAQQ

Molecular target: CK2 protein kinase (Homo sapiens, UniProt P68400)

- IC50: 5 to 10 µM
SMILES: O=c1cc(N2CCOCC2)oc2c(-c3ccccc3)cccc12 [LY294002]
